Source: patent US20050272649A1, “Conjoint administration of morphogens and ACE inhibitors in treatment of chronic renal failure” (priority 2002, published 2005)

Tested on: streptozotocin diabetic Sprague-Dawley rats
Assay type: in vivo
Details: weeks 16-32, insulin-maintained
Description: A long-term streptozotocin model of diabetic nephropathy was used to test and compare the therapeutic actions of BMP-7 with those of Enalapril. The study design was a treatment protocol beginning at 16 weeks when glomerular hypertrophy and proteinuria were established. The effects of therapy with BMP-7 (10, 30, or 100 μg/kg iv, biw) were compared to a maximal dose of Enalapril (20 mg/kg) and to a vehicle control. […] The GFR of 32 week diabetic Enalapril treated rats was 0.58±0.06 (not significant compared to vehicle treated and sham injected rats 0.55±0.02).
Animals: Female Sprague-Dawley rats 10 weeks of age weighing 190-220 g were used. Animals were allowed free access to standard rat chow and to tap water. Diabetes mellitus was induced by a single tail-vein injection of Streptozotocin (STZ 62 mg/kg of body weight, Sigma chemical company, St. Louis, Mo.) dissolved in normal saline at day 0. The diabetic state was confirmed 72 hours later by the determination of blood glucose concentration>300 mg/dl. […] Tail blood glucose levels were measured twice a week with an Accu—Chek™ Advantage meter (Roche Diagnostic Corporation, Indianapolis, Ind.). […] Food and water intake were monitored daily.
Renal hypertrophy was well developed at 16 weeks prior to treatment with vehicle, BMP-7, or enalapril. […] Glomerular filtration rate (GFR), urine albumin excretion, kidney weight, glomerular area, mesangial matrix area, interstitial volume, monocyte and macrophage infiltration, thickness of glomerular basement membrane (GBM) and glomerulosclerosis were measured.
Renal Function: In all animals, glomerular filtration rate (GFR) was measured as the clearance of inulin. […]
After the completion of surgery, a bolus of 2 ml/kg of 3% inulin (Cypros Pharmaceutical Corp, W. Carlsbad, Calif.) and 0.2% p-aminohippurate (PAH) in normal saline was infused as a priming load, followed by a sustaining infusion of the same solution at the rate of 8 ml/h·kg. […] Plasma and urine were analyzed for inulin.
Urine volume was measured and urinary protein concentration was determined with a Bio-Rad protein assay. […]

B1: OP-1: osteogenic protein-1 (OP-1, also known as BMP-7), morphogen of the OP/BMP family; OP-1 used interchangeably with sBMP-7 (protein)
chain: STGSKQRSQNRSKTPKNQEALRMANVAENSSSDQRQACKKHELYVSFRDLGWQDWIIAPEGYAAYYCEGECAFPLNSYMNATNHAIVQTLVHFINPETVPKPCCAPTQLNAISVLYFDDSSNVILKKYRNMVVRACGCH
Blood sugar (BMP-7 10 μg/kg iv twice a week): 460.0 ± 5.5 mg/dL
Blood sugar (BMP-7 30 μg/kg iv twice a week): 455.8 ± 5.7 mg/dL
Blood sugar (BMP-7 100 μg/kg iv twice a week): 461.6 ± 5.5 mg/dL

Like-named read-outs stand apart in the source and are kept apart here.
